The list shows only some results of the screen, not a fair sample: it is rich in T/C values a quarter to a half above the control, in often repeated tests (any T/C) and in doses without a T/C. Further doses and runs are listed elsewhere. T/C gives the treated animals as a percentage of the vehicle group. Some entries give survivors of the animals treated and no T/C: the source holds a T/C of zero for them, seemingly a mark for toxic or unscored doses. Some doses without a T/C left all or most animals alive at the check, yet need not have been tolerated: survival well below the control is almost never listed, so the zero probably covers shortened survival too. Counts of survivors are from the toxicity check (mostly the fifth day) where no day follows; animals may have died later. Schedules are NCI's codes, taken here to give the interval after Q, in days (D) or hours (H), and the number of doses after X. Signs of the kind (2×) count equal records among those shown. Some entries were tested several times; their values stand side by side, smallest first. For survival time, this PubChem deposit counts one and a half times the control or more as active, and values a quarter to a half above the control carry no call in these data; other NCI protocols may use other cut-offs. Some T/C values carry the count of animals alive at the toxicity check (mostly the fifth day); where none is given, no animal had died by that day.

We go through twelve molecules from PubChem BioAssay AID272 (DTP/NCI, 2004).

For the experiment, the system named is Lewis lung carcinoma i.m., BDF1 mice, T/C %. Description: NCI In Vivo Anticancer Drug Screen. Data for tumor model Lewis Lung Carcinoma (intramuscular) in B6D2F1 (BDF1) mice. In outline:
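Value is the ratio of a treated-group measurement (T) to the matching vehicle-control measurement (C), using either survival or tumour size in mice bearing transplanted tumours.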

Where [1] appears, read: T/C endpoint: median survival time, dose: 400.0 mg/kg/injection, schedule: Q01DX011 (ip), vehicle: other, higher T/C = longer survival.
The mark [2] stands for this setting: T/C endpoint: median survival time, dose: 50.0 mg/kg/injection, schedule: Q01DX011 (ip), vehicle: saline with Tween-80, higher T/C = longer survival.
The mark [3] stands for this setting: T/C endpoint: median survival time, dose: 50.0 mg/kg/injection, schedule: Q01DX011 (ip), vehicle: saline, higher T/C = longer survival.

Turning to `CCCCn1cnc2c(=S)nc[nH]c21`, the survivor count (T/C endpoint: mean tumor weight, dose: 3.12 mg/kg/injection, schedule: Q01DX011 (ip), vehicle: other, higher T/C = larger tumour) was 5 of 8; the survivor count (T/C endpoint: mean tumor weight, dose: 12.5 mg/kg/injection, schedule: Q01DX011 (ip), vehicle: other, higher T/C = larger tumour) was 5 of 8; the survivor count (T/C endpoint: mean tumor weight, dose: 25.0 mg/kg/injection, schedule: Q01DX011 (ip), vehicle: other, higher T/C = larger tumour) is recorded as 3 of 8; the survivor count (T/C endpoint: mean tumor weight, dose: 50.0 mg/kg/injection, schedule: Q01DX011 (ip), vehicle: other, higher T/C = larger tumour) is on record as 3 of 8; the survivor count (T/C endpoint: mean tumor weight, dose: 100.0 mg/kg/injection, schedule: Q01DX011 (ip), vehicle: other, higher T/C = larger tumour) is 2 of 8; the survivor count (T/C endpoint: median survival time, dose: 3.12 mg/kg/injection, schedule: Q01DX011 (ip), vehicle: other, higher T/C = longer survival) was 5 of 8. Also, the survivor count runs as follows: (T/C endpoint: median survival time, dose: 12.5 mg/kg/injection, schedule: Q01DX011 (ip), vehicle: other, higher T/C = longer survival) 5 of 8; (T/C endpoint: median survival time, dose: 25.0 mg/kg/injection, schedule: Q01DX011 (ip), vehicle: other, higher T/C = longer survival) 3 of 8 (2×); (T/C endpoint: median survival time, dose: 50.0 mg/kg/injection, schedule: Q01DX011 (ip), vehicle: other, higher T/C = longer survival) 3 of 8; (T/C endpoint: median survival time, dose: 100.0 mg/kg/injection, schedule: Q01DX011 (ip), vehicle: other, higher T/C = longer survival) 2 of 8; (T/C endpoint: median survival time, dose: 200.0 mg/kg/injection, schedule: Q01DX011 (ip), vehicle: other, higher T/C = longer survival) 0 of 8; under setting [1], 0 of 8.

Consider `CCC/C(C)=N/Nc1ccccn1`, for which the survivor count was 7 of 8 under setting [2] and 0 of 8 (T/C endpoint: median survival time, dose: 100.0 mg/kg/injection, schedule: Q01DX011 (ip), vehicle: saline with Tween-80, higher T/C = longer survival).

Consider `COc1cccc2c1C(=O)c1c(O)c3c(c(O)c1C2=O)C[C@@](O)(C(C)=O)C[C@@H]3OC1CC(N)C(O)C(C)O1` (stereo partly drawn), for which the survivor count was 5 of 8 (T/C endpoint: median survival time, dose: 1.0 mg/kg/injection, schedule: Q01DX011 (ip), vehicle: water, higher T/C = longer survival); 2 of 6 and 6 of 8 (T/C endpoint: median survival time, dose: 2.0 mg/kg/injection, schedule: Q01DX011 (ip), vehicle: water, higher T/C = longer survival); 0 of 6 and 0 of 8 (T/C endpoint: median survival time, dose: 4.0 mg/kg/injection, schedule: Q01DX011 (ip), vehicle: water, higher T/C = longer survival); 0 of 8 (T/C endpoint: median survival time, dose: 8.0 mg/kg/injection, schedule: Q01DX011 (ip), vehicle: water, higher T/C = longer survival).

In the case of `Cc1c(N)nc(C(CC(N)=O)NCC(N)C(N)=O)nc1C(=O)NC(C(=O)NC(C)C(O)C(C)C(=O)NC(C(=O)NCCc1nc(-c2nc(C(=O)NCCCNCCCCN)cs2)cs1)C(C)O)C(OC1OC(CO)C(O)C(O)C1OC1OC(CO)C(O)C(OC(N)=O)C1O)c1cnc[nH]1` (stereo not drawn), the T/C runs as follows: (T/C endpoint: median survival time, dose: 2.3 mg/kg/injection, schedule: Q01DX011 (ip), vehicle: saline, higher T/C = longer survival) 131 % of control; (T/C endpoint: median survival time, dose: 6.5 mg/kg/injection, schedule: Q01DX011 (ip), vehicle: saline, higher T/C = longer survival) 147 % of control. Besides, the survivor count reads like this: (T/C endpoint: median survival time, dose: 30.0 mg/kg/injection, schedule: Q01DX011 (ip), vehicle: saline, higher T/C = longer survival) 7 of 8; under setting [3], 0 of 8.

In the case of `CC(=O)c1c(O)c(C)c(O)c2c1OC1=CC(=O)C(C(C)=O)C(=O)C12C` (stereo not drawn), the survivor count by setting is: (T/C endpoint: median survival time, dose: 118.0 mg/kg/injection, schedule: Q01DX011 (ip), vehicle: other, higher T/C = longer survival) 8 of 8; (T/C endpoint: median survival time, dose: 266.0 mg/kg/injection, schedule: Q01DX011 (ip), vehicle: other, higher T/C = longer survival) 0 of 8; under setting [1], 0 of 8.

In the case of `c1ccc(-c2csc3c4ccccc4c4ccccc4[n+]23)cc1`, the survivor count (T/C endpoint: mean tumor weight (est.), dose: 1.0 mg/kg/injection, schedule: Q01DX011 (ip), vehicle: saline with Tween-80, higher T/C = larger tumour) was 4 of 8; the survivor count (T/C endpoint: median survival time, dose: 1.0 mg/kg/injection, schedule: Q01DX011 (ip), vehicle: saline with Tween-80, higher T/C = longer survival) was 4 of 8; the survivor count (T/C endpoint: median survival time, dose: 4.0 mg/kg/injection, schedule: Q01DX011 (ip), vehicle: saline with Tween-80, higher T/C = longer survival) is on record as 0 of 8; the survivor count (T/C endpoint: median survival time, dose: 8.0 mg/kg/injection, schedule: Q01DX011 (ip), vehicle: saline with Tween-80, higher T/C = longer survival) is 0 of 8.

As to `Cc1c2ccncc2c(C)c2c1[nH]c1ccccc12`, the survivor count (T/C endpoint: median survival time, dose: 12.5 mg/kg/injection, schedule: Q01DX011 (ip), vehicle: water, higher T/C = longer survival) is on record as 7 of 8.

As to `COc1ccc([I+]c2ccccc2)cc1`, the survivor count by setting is: (T/C endpoint: mean tumor weight, dose: 6.25 mg/kg/injection, schedule: Q01DX011 (ip), vehicle: saline, higher T/C = larger tumour) 3 of 8; (T/C endpoint: median survival time, dose: 6.25 mg/kg/injection, schedule: Q01DX011 (ip), vehicle: saline, higher T/C = longer survival) 3 of 8; (T/C endpoint: median survival time, dose: 12.5 mg/kg/injection, schedule: Q01DX011 (ip), vehicle: saline, higher T/C = longer survival) 0 of 8; (T/C endpoint: median survival time, dose: 25.0 mg/kg/injection, schedule: Q01DX011 (ip), vehicle: saline, higher T/C = longer survival) 0 of 8; under setting [3], 0 of 8.

`Clc1ccc2nc(CBr)cnc2c1`: the survivor count is recorded as 4 of 8 (T/C endpoint: mean tumor weight (est.), dose: 50.0 mg/kg/injection, schedule: Q01DX011 (ip), vehicle: saline with Tween-80, higher T/C = larger tumour) and 4 of 8 under setting [2].

Regarding `O=c1[nH]c(=O)n(C2CC(O)C(CO)O2)cc1F` (stereo not drawn), the survivor count is, setting by setting: (T/C endpoint: mean tumor weight, dose: 40.0 mg/kg/injection, schedule: Q01DX011 (ip), vehicle: other, higher T/C = larger tumour) 5 of 8; (T/C endpoint: median survival time, dose: 10.0 mg/kg/injection, schedule: Q01DX011 (ip), vehicle: saline, higher T/C = longer survival) 7 of 8; (T/C endpoint: median survival time, dose: 40.0 mg/kg/injection, schedule: Q01DX011 (ip), vehicle: other, higher T/C = longer survival) 5 of 8; (T/C endpoint: median survival time, dose: 80.0 mg/kg/injection, schedule: Q01DX011 (ip), vehicle: saline, higher T/C = longer survival) 5 of 8 and 8 of 8; (T/C endpoint: median survival time, dose: 100.0 mg/kg/injection, schedule: Q01DX009 (ip), vehicle: saline, higher T/C = longer survival) 9 of 10; (T/C endpoint: median survival time, dose: 160.0 mg/kg/injection, schedule: Q01DX011 (ip), vehicle: other, higher T/C = longer survival) 0 of 8. Besides, the survivor count by setting is: (T/C endpoint: median survival time, dose: 160.0 mg/kg/injection, schedule: Q01DX011 (ip), vehicle: saline, higher T/C = longer survival) 0 of 8, 1 of 8, 3 of 8; (T/C endpoint: median survival time, dose: 160.0 mg/kg/injection, schedule: Q01DX011 (ip), vehicle: water, higher T/C = longer survival) 2 of 8; (T/C endpoint: median survival time, dose: 200.0 mg/kg/injection, schedule: Q01DX009 (ip), vehicle: saline, higher T/C = longer survival) 10 of 10; (T/C endpoint: median survival time, dose: 320.0 mg/kg/injection, schedule: Q01DX011 (ip), vehicle: water, higher T/C = longer survival) 0 of 8; (T/C endpoint: median survival time, dose: 400.0 mg/kg/injection, schedule: Q01DX009 (ip), vehicle: saline, higher T/C = longer survival) 9 of 10. Moreover, the T/C runs as follows: (T/C endpoint: median survival time, dose: 10.0 mg/kg/injection, schedule: Q01DX009 (ip), vehicle: saline, evaluated on day 12, higher T/C = longer survival) 129 % of control; (T/C endpoint: median survival time, dose: 10.0 mg/kg/injection, schedule: Q01DX009 (ip), vehicle: saline, evaluated on day 41, higher T/C = longer survival) 133 % of control; (T/C endpoint: median survival time, dose: 20.0 mg/kg/injection, schedule: Q01DX009 (ip), vehicle: saline, evaluated on day 12, higher T/C = longer survival) 134 % of control; (T/C endpoint: median survival time, dose: 20.0 mg/kg/injection, schedule: Q01DX009 (ip), vehicle: saline, evaluated on day 41, higher T/C = longer survival) 126 % of control; (T/C endpoint: median survival time, dose: 40.0 mg/kg/injection, schedule: Q01DX011 (ip), vehicle: saline, higher T/C = longer survival) 143 % of control; under setting [3], 133 % of control. Also, the T/C reads like this: (T/C endpoint: median survival time, dose: 52.0 mg/kg/injection, schedule: Q01DX007 (sc), vehicle: saline, evaluated on day 14, higher T/C = longer survival) 134 % of control; (T/C endpoint: median survival time, dose: 52.0 mg/kg/injection, schedule: Q01DX007 (sc), vehicle: saline, evaluated on day 62, higher T/C = longer survival) 134 % of control; (T/C endpoint: median survival time, dose: 80.0 mg/kg/injection, schedule: Q01DX009 (ip), vehicle: saline, higher T/C = longer survival) 126 % of control; (T/C endpoint: median survival time, dose: 80.0 mg/kg/injection, schedule: Q01DX011 (ip), vehicle: other, higher T/C = longer survival) 130 % of control [6 of 8 alive]; (T/C endpoint: median survival time, dose: 100.0 mg/kg/injection, schedule: Q01DX011 (ip), vehicle: saline, higher T/C = longer survival) 142 % of control.

On to `COc1cc2c(c(OC)c1OC)-c1ccc(OC)c(=O)cc1[C@@H](NC=O)CC2`, for which the survivor count is reported as 0 of 8 (T/C endpoint: median survival time, dose: 2.0 mg/kg/injection, schedule: Q01DX011 (ip), vehicle: saline, higher T/C = longer survival) and 0 of 8 (T/C endpoint: median survival time, dose: 4.0 mg/kg/injection, schedule: Q01DX011 (ip), vehicle: saline, higher T/C = longer survival).

Turning to `O=C(CCCl)N1CCN(C(=O)CCCl)c2ccccc21`, the survivor count is 1 of 8 (T/C endpoint: mean tumor weight (est.), dose: 75.0 mg/kg/injection, schedule: Q01DX011 (ip), vehicle: saline with Tween-80, higher T/C = larger tumour) and 1 of 8 (T/C endpoint: median survival time, dose: 75.0 mg/kg/injection, schedule: Q01DX011 (ip), vehicle: saline with Tween-80, higher T/C = longer survival).
